This is an account of results in patent publication US6376653 (GlaxoSmithKline, dated 2002).

Sequences of proteins named here, by UniProt entry; tags and fusion partners are left off. Residues count along the entry.
UniProt Q02763, residues 23-748: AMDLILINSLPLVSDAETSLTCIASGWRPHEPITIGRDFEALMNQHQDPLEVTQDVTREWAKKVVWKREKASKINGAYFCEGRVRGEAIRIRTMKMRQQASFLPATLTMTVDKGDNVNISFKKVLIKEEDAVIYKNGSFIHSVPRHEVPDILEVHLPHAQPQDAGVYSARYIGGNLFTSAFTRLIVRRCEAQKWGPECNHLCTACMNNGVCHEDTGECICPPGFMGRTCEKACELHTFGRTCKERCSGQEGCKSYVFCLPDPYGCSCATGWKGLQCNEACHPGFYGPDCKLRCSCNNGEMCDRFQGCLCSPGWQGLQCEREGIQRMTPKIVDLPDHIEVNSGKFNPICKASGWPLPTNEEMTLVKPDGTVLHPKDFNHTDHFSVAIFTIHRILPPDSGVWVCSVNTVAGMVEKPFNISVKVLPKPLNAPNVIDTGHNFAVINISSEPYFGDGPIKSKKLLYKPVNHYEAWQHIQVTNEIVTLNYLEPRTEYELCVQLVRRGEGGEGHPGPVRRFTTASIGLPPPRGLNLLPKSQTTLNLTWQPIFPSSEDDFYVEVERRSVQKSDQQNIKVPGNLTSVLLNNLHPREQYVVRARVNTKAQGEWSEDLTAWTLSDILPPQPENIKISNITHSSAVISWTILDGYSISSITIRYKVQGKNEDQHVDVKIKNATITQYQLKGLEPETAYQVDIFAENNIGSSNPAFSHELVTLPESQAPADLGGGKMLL

No constants are given. Whether binding was seen depends on the method and setting. Some entries that bind do so weakly or less than the wild type.

In test [1] the target is recombinant Tie2 extracellular domain-Fc fusion (UniProt Q02763). Nature of the test: BIAcore SPR, purified mAb captured on rabbit anti-mouse IgG Fc, Tie2-Fc injected. A general note: Surface plasmon resonance follows binding to a sensor surface in real time, without labels.
Test [2] has the same target. The test is described as follows: BIAcore SPR, hybridoma supernatant; mAb captured on rabbit anti-mouse IgG Fc then Tie2-Fc injected, and the reverse format.

B1: monoclonal antibody 12H8 (antibody, V domains shown)
VH: EVQLVESGGGLVKPGGSLKLSCAASGFTFSDYGMHWVRQAPEKGLEWVAYINSGSSTITYADTVKGRFTISRDNAKNTLFLQMTSLRSEDTAIYYCARGYYGPYYFDYWGQGTALTVSS
VL: DIVMTQSHKFMSTSVGDRVSFTCKASQNVGTAVAWYQQKPGQSPKLLIYWASSRHTGVPDRFTGSGSGTDFTLTITNVQSEDLADYFCQEYSSYPLTFGVGTKLELK
notes: also called mAb 12H8
As to B1, the binding result in test [1] and in test [2] was “binds” throughout.
